Measured values as given in PubChem BioAssay AID493014 (National Center for Advancing Translational Sciences (NCATS), 2011).
Some of the results follow. Shown are side measurements of this screen, not its main read-out; they come without a call. The list favours compounds with an active or inconclusive main result. Potencies come from curve fits of mixed quality, noted in brackets.

Experiment: qHTS Assay to Find Inhibitors of Chronic Active B-Cell Receptor Signaling
Settings: ABC-DLBCL IkBa-CBG/CBR reporter, luminescence ratio (green luciferase fused to IkBa over red control in TMD8 lymphoma cells), 4 h
Outline: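 Doxycycline induced both beetle luciferases in TMD8 lymphoma cells; IKK-driven degradation limits the IkappaBalpha-fused green signal, while red luminescence normalises for cell number and nonspecific effects. Compounds tested up to 46 uM, 4 hrs.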

[1] = measured here: CBR red luminescence, cell number
[2] = measured here: IkBa-CBG green luminescence

Structure (SMILES): Cc1cccc(/C(N)=N/OC(=O)c2ccc3c(c2)OCO3)c1
- AC50 [1]: 16.4 µM [falling, single point]

Structure (SMILES): CCN1/C(=C2\C(=O)N(C)C(=S)N2C)C=Cc2cc(C)ccc21
- AC50 [1]: 11.6 µM [rising, partial curve, poor fit]

Structure (SMILES): Cc1ccccc1C(=O)Nc1ccccc1N1CCN(C(=O)c2ccccc2)CC1
- AC50 [1]: 17.8 µM [falling, single point]

Structure (SMILES): C/C(=N\NC(=S)Nc1cc(S(=O)(=O)N2CCOCC2)ccc1Cl)c1ccccc1F
- AC50 [1]: 5.8 µM [rising, partial curve, poor fit]
- AC50 [2]: 5.8 µM [falling, single point]

Structure (SMILES): N#Cc1nc(-c2ccccc2F)oc1NCCN1CCOCC1
- AC50 [1]: 2.06 µM [rising, partial curve]

Structure (SMILES): CC/C(=N\O)c1c(O)c2c(n(-c3ccccc3)c1=O)CCCC2
- AC50 [1]: 13 µM [rising, partial curve, poor fit]

Structure (SMILES): COc1cccc(OC)c1C(=O)Nc1ccccc1N1CCCC1
- AC50 [1]: 29.1 µM [rising, partial curve, poor fit]

Structure (SMILES): CCOc1ccccc1NC(=O)CSc1nc2[nH]ncc2c(=O)[nH]1
- AC50 [1]: 14.6 µM [falling, partial curve]

Structure (SMILES): Cc1ccc2nsnc2c1S(=O)(=O)N1CCOCC1
- AC50 [1]: 2.91 µM [falling, single point]
- AC50 [2]: 4.61 µM [rising, partial curve, poor fit]

Structure (SMILES): CCN(CC)CCN1C(=O)C(=O)/C(=C(/O)c2ccc(OC)c(OC)c2)C1c1ccccn1 (stereo unspecified)
- AC50 [1]: 6.51 µM [rising, single point]

Structure (SMILES): Cc1cc(C)cc(NC(=O)Cn2cc3c(n2)CCCCC3)c1
- AC50 [1]: 29.1 µM [rising, single point]

Structure (SMILES): CC1(C)CC(=O)C2=C(C1)OC(N)=C(C#N)C2c1cccs1 (stereo unspecified)
- AC50 [1]: 17.8 µM [falling, single point]

Structure (SMILES): Cc1ccc(S(=O)(=O)N2CCCC2C(=O)NCc2ccccc2Cl)cc1 (stereo unspecified)
- AC50 [1]: 35.5 µM [falling, single point]

Structure (SMILES): Cc1cccc(NC(=O)c2ccc3nsnc3c2)c1C
- AC50 [1]: 14.1 µM [falling, partial curve]

Structure (SMILES): COc1ccccc1NC(=O)C(C)OC(=O)C1COc2ccccc2O1 (stereo unspecified)
- AC50 [1]: 29.1 µM [falling, single point]

Structure (SMILES): CCc1ccc2nc(N(CCCN(C)C)C(=O)c3ccc(S(=O)(=O)N(C)C4CCCCC4)cc3)sc2c1
- AC50 [1]: 35.5 µM [rising, single point]

Structure (SMILES): O=S(=O)(c1cccc(NC(=S)N2CCN(c3ccccc3)CC2)c1)C(F)F
- AC50 [1]: 18.4 µM [falling, partial curve, poor fit]

Structure (SMILES): CCS(=O)(=O)c1ccc2oc(Nc3ccccc3Br)nc2c1
- AC50 [1]: 1.41 µM [rising, partial curve]

Structure (SMILES): C#CCOCCOCCOCCNc1nc(N2CCN(C(=O)CCCCCCCCCCNC(=O)[C@H](CCCCN)n3cc(C[C@@H](C)CC)nn3)CC2)nc(N2CCN(C(=O)CCCCCCCCCCNC(=O)[C@H](CCCN=C(N)N)n3cc(C[C@@H](C)CC)nn3)CC2)n1
- AC50 [1]: 8.2 µM [falling, single point]

Structure (SMILES): CC(C)(C)C(=O)NCc1ccc(C(=O)CSc2nnc(C3CC3)n2C2CC2)s1
- AC50 [1]: 23.1 µM [rising, partial curve, poor fit]

Structure (SMILES): CCCS(=O)(=O)c1c(S(=O)(=O)CCC)c2c(C)cccn2c1C(=O)N/N=C/c1cc(O)cc(O)c1
- AC50 [1]: 8.91 µM [falling, partial curve]

Structure (SMILES): O=C(NCC1CCCO1)c1cc2ccccc2oc1=O (stereo unspecified)
- AC50 [1]: 11.2 µM [falling, partial curve, poor fit]

Structure (SMILES): Nc1c(C(=O)NC2CCCC2)c2nc3ccccc3nc2n1/N=C/c1ccco1
- AC50 [1]: 0.92 µM [falling, full curve, poor fit]

Structure (SMILES): N#C/C(=C(/O)c1ccc([N+](=O)[O-])o1)c1nc2ccccc2[nH]1
- AC50 [1]: 1.12 µM [falling, full curve, poor fit]

Structure (SMILES): O=C(Nc1ccccc1)c1ccc2c(c1)OCCO2
- AC50 [1]: 10 µM [falling, partial curve]

Structure (SMILES): CCc1ccccc1-n1c(SCC(=O)NC)nnc1-c1cccnc1
- AC50 [1]: 3.55 µM [falling, partial curve, poor fit]

Structure (SMILES): Cc1ccc(C(=O)c2cc([N+](=O)[O-])ccc2N2CCCCC2)c(C)c1
- AC50 [1]: 2.91 µM [rising, full curve]
- AC50 [2]: 3.66 µM [falling, full curve]

Structure (SMILES): COc1ccc(N=Nc2ccc3ccccc3c2)c(O)c1
- AC50 [1]: 0.355 µM [falling, full curve]

Structure (SMILES): Cc1ccc(NC(=O)Nc2ccno2)cc1
- AC50 [1]: 11.2 µM [rising, partial curve, poor fit]

Structure (SMILES): Cc1ccnc(NC(=O)CNC(=O)C23CC4CC(CC(C4)C2)C3)c1
- AC50 [1]: 29.1 µM [rising, single point]

Structure (SMILES): COC(=O)c1sccc1NC(=O)Nc1cc(OC)ccc1OC
- AC50 [1]: 11.2 µM [falling, partial curve, poor fit]

Structure (SMILES): CCc1ccc(CNc2ccc3c(c2)ncn3C)cc1
- AC50 [1]: 11.2 µM [rising, partial curve]

Structure (SMILES): O=[N+]([O-])c1ccc(Sc2n[nH]c(-c3ccco3)n2)nc1
- AC50 [1]: 1.41 µM [rising, partial curve, poor fit]

Structure (SMILES): CCC1(c2cccc(Cl)c2)NC(=O)N(Cc2cc(C(=O)OC)c(C)o2)C1=O (stereo unspecified)
- AC50 [1]: 20.6 µM [falling, partial curve, poor fit]

Structure (SMILES): Cc1cc(NC(=O)CN2CCCC(C)C2)no1 (stereo unspecified)
- AC50 [1]: 22.4 µM [falling, single point]

Structure (SMILES): CCCCCCSc1ccc([C@H]2N[C@@](CC(C)C)(C(=O)OC)[C@H]3C(=O)N(C)C(=O)[C@@H]23)cc1
- AC50 [1]: 29.1 µM [falling, partial curve, poor fit]

Structure (SMILES): CC(=O)Nc1ccc(NC(=O)C(C)OC(=O)CSc2ccc(Br)cc2C)cc1 (stereo unspecified)
- AC50 [1]: 14.1 µM [rising, partial curve, poor fit]

Structure (SMILES): CCc1nc(Nc2ccncc2)c2oc3ccccc3c2n1
- AC50 [1]: 12.6 µM [falling, partial curve]

Structure (SMILES): COc1ccc(NC(=O)C2=CC(c3ccc(OC)c(OC)c3)=NS(=O)(=O)N2C)cc1
- AC50 [1]: 35.5 µM [falling, single point]

Structure (SMILES): COc1ccc(-n2c(CN3CCN(c4ccc(F)cc4)CC3)nc3ccc([N+](=O)[O-])cc3c2=O)c(OC)c1
- AC50 [1]: 0.112 µM [falling, full curve, poor fit]

Structure (SMILES): Cn1c(=O)n(Cc2ccccc2)c(=O)c2c1nc1n2CCCN1Cc1ccccc1
- AC50 [1]: 25.9 µM [rising, partial curve, poor fit]

Structure (SMILES): O=C(Nc1ccc(F)cc1)c1nn(-c2ccccc2)c(=O)cc1Cl
- AC50 [1]: 10 µM [falling, partial curve]
- AC50 [2]: 35.5 µM [rising, partial curve, poor fit]

Structure (SMILES): O=Cc1ccnc(-c2ccc(OC(=O)c3ccco3)cc2)n1
- AC50 [1]: 31.6 µM [rising, single point]
- AC50 [2]: 35.5 µM [falling, single point]

Structure (SMILES): CN(CC(=O)Nc1ccc(F)c(F)c1F)C1CCCCC1
- AC50 [1]: 20.6 µM [falling, single point]

Structure (SMILES): O=c1[nH]c(-c2ccccc2)nc2sc(-c3ccccc3)cc12
- AC50 [1]: 1.58 µM [falling, full curve]

Structure (SMILES): CCOc1ccc(CN(C)C(=O)[C@H](C)NC(=O)c2ccco2)cc1OC
- AC50 [1]: 14.1 µM [rising, partial curve, poor fit]

Structure (SMILES): O=c1[nH]c2ccccc2nc1CCc1ccccc1
- AC50 [1]: 0.1 µM [rising, full curve, poor fit]

Structure (SMILES): Cn1cccc1/C=C1\SC(=Nc2ccccc2)NC1=O
- AC50 [1]: 8.91 µM [falling, partial curve]

Structure (SMILES): Cc1ccc(N(C(=O)CNC(=O)c2ccco2)C(C(=O)NC2CCCCC2)c2cccnc2)cc1 (stereo unspecified)
- AC50 [1]: 11.2 µM [falling, partial curve, poor fit]

Structure (SMILES): O=c1cc(O)c(-c2cccc(Cl)c2)c(Cl)[nH]1
- AC50 [1]: 0.731 µM [falling, full curve, poor fit]

Structure (SMILES): CN1CCN(Cc2cc(=O)oc3ccc(Cl)cc23)CC1
- AC50 [1]: 7.08 µM [rising, full curve, poor fit]

Structure (SMILES): CCOc1cc(C2C(C#N)=C(N)OC3=C2C(=O)CC(C)(C)C3)cc([N+](=O)[O-])c1O (stereo unspecified)
- AC50 [1]: 20 µM [falling, single point]

Structure (SMILES): Cc1ccc(NC(=O)Cn2c(CCC(=O)O)ccc2-c2ccc(Cl)cc2)cc1
- AC50 [1]: 1.41 µM [rising, partial curve]

Structure (SMILES): Cc1ccsc1/C=C1\CCC(C2CCCC2)C1=O (stereo unspecified)
- AC50 [1]: 1.58 µM [rising, full curve]

Structure (SMILES): O=C(CCN1C(=O)/C(=C/c2ccc(Cl)cc2)SC1=S)Nc1cccnc1
- AC50 [1]: 10 µM [falling, partial curve]

Structure (SMILES): Cc1ccc(N=Cc2cc(Cc3ccccc3Cl)cc([N+](=O)[O-])c2O)c(O)c1
- AC50 [1]: 12.6 µM [falling, partial curve, poor fit]

Structure (SMILES): COc1cccc(/C=C/C(=O)c2ccc(NC3=NCCCS3)cc2)c1
- AC50 [1]: 35.5 µM [falling, single point]

Structure (SMILES): CCCN(Cc1nc(-c2ccc(Cl)cc2)no1)CC1CCCO1 (stereo unspecified)
- AC50 [1]: 35.5 µM [rising, single point]

Structure (SMILES): O=C1c2cccc3c(O)ccc(c23)C(=O)N1Cc1ccccc1
- AC50 [2]: 11.6 µM [rising, partial curve, poor fit]

Structure (SMILES): O=C(c1ccc(NS(=O)(=O)c2ccccc2)cc1)N1CCCC1
- AC50 [1]: 29.1 µM [falling, single point]

Structure (SMILES): CCOC(=O)c1[nH]c(C)c(C(=O)OCc2c(C)noc2C)c1C
- AC50 [1]: 2.91 µM [rising, single point]
